# Measurements reported in PubChem BioAssay AID1508597 (Cure First, 2020).
# Screen: 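Survival screen with siRNA in ovarian cancer cells derived from patients, with or without rucaparib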 (primary screen)
# System: human ovarian carcinoma lines grown from tumours: OCI-P5x (papillary serous) and OCI-C5x (clear cell)
# Knock-down reagent: siRNA pool against human genes, 1.25 pmol siRNA per well
# Timing: 72 h or 96 h, depending on the cell culture
# Challenge: rucaparib 20 µM (about IC30) or vehicle, present until read-out
# Measured: 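Luminescent ATP-based viability assay read 72 or 96 h after transfection, depending on culture, given as normalised percent viability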
# Direction: viability, normalised: higher = more viable cells remaining
# Rule for the call: 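Active when normalised viability falls below 80 percent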
# Meaning of the calls: active = viability under 80%; inactive = viability 80% or more
# Shown is an unselected part of about 2,100 deposited reagents. 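Calls flag viability under 80% in either arm, not effects specific to rucaparib; the reference for percent is not stated.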 Not given: the 100% reference.
gene,rucaparib or vehicle,cell line,technical replicate,"viability, normalised (%)",Call
STK38,Rucaparib,OCI-C5x (clear cell),1,57.3,active
STK38,Rucaparib,OCI-C5x (clear cell),2,46.3,active
STK38,Rucaparib,OCI-C5x (clear cell),3,64,active
STK38,Rucaparib,OCI-P5x (serous),1,82.4,inactive
STK38,Rucaparib,OCI-P5x (serous),2,91,inactive
STK38,Rucaparib,OCI-P5x (serous),3,67.6,active
STK38,Vehicle,OCI-C5x (clear cell),1,95.5,inactive
STK38,Vehicle,OCI-C5x (clear cell),2,46.3,active
STK38,Vehicle,OCI-C5x (clear cell),3,57.6,active
STK38,Vehicle,OCI-P5x (serous),1,65.8,active
STK38,Vehicle,OCI-P5x (serous),2,70.1,active
STK38,Vehicle,OCI-P5x (serous),3,63.6,active
VCAM1,Rucaparib,OCI-C5x (clear cell),1,67.5,active
VCAM1,Rucaparib,OCI-C5x (clear cell),2,42,active
VCAM1,Rucaparib,OCI-C5x (clear cell),3,42,active
VCAM1,Rucaparib,OCI-P5x (serous),1,53.8,active
VCAM1,Rucaparib,OCI-P5x (serous),2,83.7,inactive
VCAM1,Rucaparib,OCI-P5x (serous),3,73.3,active
VCAM1,Vehicle,OCI-C5x (clear cell),1,17.8,active
VCAM1,Vehicle,OCI-C5x (clear cell),2,55.6,active
VCAM1,Vehicle,OCI-C5x (clear cell),3,45.8,active
VCAM1,Vehicle,OCI-P5x (serous),1,96.3,inactive
VCAM1,Vehicle,OCI-P5x (serous),2,90.4,inactive
VCAM1,Vehicle,OCI-P5x (serous),3,90.6,inactive

Next part; the last 6 above are carried over.
gene,rucaparib or vehicle,cell line,technical replicate,"viability, normalised (%)",Call
VCAM1,Vehicle,OCI-C5x (clear cell),1,17.8,active
VCAM1,Vehicle,OCI-C5x (clear cell),2,55.6,active
VCAM1,Vehicle,OCI-C5x (clear cell),3,45.8,active
VCAM1,Vehicle,OCI-P5x (serous),1,96.3,inactive
VCAM1,Vehicle,OCI-P5x (serous),2,90.4,inactive
VCAM1,Vehicle,OCI-P5x (serous),3,90.6,inactive
ALKBH3,Rucaparib,OCI-C5x (clear cell),1,50.1,active
ALKBH3,Rucaparib,OCI-C5x (clear cell),2,41.3,active
ALKBH3,Rucaparib,OCI-C5x (clear cell),3,44,active
ALKBH3,Rucaparib,OCI-P5x (serous),1,90.1,inactive
ALKBH3,Rucaparib,OCI-P5x (serous),2,81.6,inactive
ALKBH3,Rucaparib,OCI-P5x (serous),3,58,active
ALKBH3,Vehicle,OCI-C5x (clear cell),1,59.6,active
ALKBH3,Vehicle,OCI-C5x (clear cell),2,66.7,active
ALKBH3,Vehicle,OCI-C5x (clear cell),3,56.7,active
ALKBH3,Vehicle,OCI-P5x (serous),1,75.8,active
ALKBH3,Vehicle,OCI-P5x (serous),2,74.7,active
ALKBH3,Vehicle,OCI-P5x (serous),3,62.5,active
POLE2,Rucaparib,OCI-C5x (clear cell),1,47.4,active
POLE2,Rucaparib,OCI-C5x (clear cell),2,46.6,active
POLE2,Rucaparib,OCI-C5x (clear cell),3,46.8,active
POLE2,Rucaparib,OCI-P5x (serous),1,58.1,active
POLE2,Rucaparib,OCI-P5x (serous),2,62.3,active
POLE2,Rucaparib,OCI-P5x (serous),3,47,active
POLE2,Vehicle,OCI-C5x (clear cell),1,64.8,active
POLE2,Vehicle,OCI-C5x (clear cell),2,32.2,active
POLE2,Vehicle,OCI-C5x (clear cell),3,29.3,active
POLE2,Vehicle,OCI-P5x (serous),1,58.4,active
POLE2,Vehicle,OCI-P5x (serous),2,32.3,active
POLE2,Vehicle,OCI-P5x (serous),3,48,active
EIF2AK4,Rucaparib,OCI-C5x (clear cell),1,120,inactive
EIF2AK4,Rucaparib,OCI-C5x (clear cell),2,138,inactive
EIF2AK4,Rucaparib,OCI-C5x (clear cell),3,122,inactive
EIF2AK4,Rucaparib,OCI-P5x (serous),1,134,inactive
EIF2AK4,Rucaparib,OCI-P5x (serous),2,164,inactive
EIF2AK4,Rucaparib,OCI-P5x (serous),3,144,inactive
EIF2AK4,Vehicle,OCI-C5x (clear cell),1,102,inactive
EIF2AK4,Vehicle,OCI-C5x (clear cell),2,87,inactive
EIF2AK4,Vehicle,OCI-C5x (clear cell),3,119,inactive
EIF2AK4,Vehicle,OCI-P5x (serous),1,96.3,inactive
EIF2AK4,Vehicle,OCI-P5x (serous),2,137,inactive
EIF2AK4,Vehicle,OCI-P5x (serous),3,94.4,inactive
